Measurements as given in PMC5915149, “The role of oxidative stress in activity of anticancer thiosemicarbazones” (Oncotarget, 2018).

Assays:
[1] = test system: MCF-7; experiment: MTS antiproliferative assay, MCF-7 (with or without added metal ions); format: cell-based, human; conditions: versus NHDF
Description: (§1) The cells were seeded in 96-well plates (Nunc) at a density of 3,500 cells/well (HCT116 and MCF-7) and 3,000 cells/well (NHDF) and incubated at 37° C for 24 h. The assay was performed following a 96 h incubation with varying concentrations of the compounds that were being tested. Then, 20 µL of CellTiter 96® AQueous One Solution-MTS (Promega) was added to each well (with 100 µL DMEM without phenol red) and incubated for 1 h at 37° C. The optical densities of the samples were analyzed at 490 nm using a multi-plate reader (Synergy 4, Bio Tek). Results were expressed as a percentage of the control and calculated as the inhibitory concentration (IC50) values (using GraphPad Prism 5). The IC50 parameter was defined as the compound concentration that was necessary to reduce the proliferation of cells to 50% of the untreated control. Each individual compound was tested in triplicate in a single experiment with each experiment being repeated three or four times.
(§2) The HCT116 and MCF-7 cells were seeded in 96-well plates (Nunc) at a density of 3,500 cells/well and incubated at 37° C for 24 h. The MTS assay was performed following a 96 h incubation with varying concentrations of the tested compounds. Additionally, a 20 µM solution of CuSO4, FeSO4 or FeCl3 was added into wells with the tested compounds. The results were expressed as a percentage of the control and calculated as the inhibitory concentration (IC50) values using GraphPad Prism 5. Each individual compound was tested in triplicate in a single experiment with each experiment being repeated three times.

[2] = test system: HCT116; experiment: MTS antiproliferative assay, HCT116 (with or without added metal ions); format: cell-based, human; conditions: versus NHDF
Description: as §1, §2

| SMILES | Selectivity index, calculated for MCF-7 [1] | Selectivity index, calculated for HCT116 [2] |
| --- | --- | --- |
| Oc1cccc2ccc(C=NNC(=S)N3CCOCC3)nc12 [Compound 2a] | 978.8 | – |
| S=C(NN=C(c1ccccn1)c1ccccn1)N1CCN(c2ccccc2)CC1 [Compound 3a] | 0.1 | 2.1 |
| S=C(NN=C(c1ccccn1)c1ccccn1)N1CCN(c2cnccn2)CC1 [Compound 3c] | 0.5 | 0.4 |
| FC(F)(F)c1cnc(N2CCN(C(=S)NN=Cc3ccc4ccccc4n3)CC2)c(Cl)c1 [Compound 1c] | – | 236.6 |
| S=C(NN=C(c1ccccn1)c1ccccn1)N1CCN(c2ccccn2)CC1 [Compound 3b] | 39.0 | 77.7 |
| S=C(NN=Cc1ccc2ccccc2n1)N1CCN(c2cnccn2)CC1 [Compound 1a] | 43.1 | 107.6 |
| Oc1cccc2ccc(C=NNC(=S)N3CCN(c4cnccn4)CC3)nc12 [Compound 2b] | 376.7 | 240.4 |
